Experimental data reported in PubChem BioAssay AID504834 (National Center for Advancing Translational Sciences (NCATS), 2011).
About 22,000 (6.9%) of roughly 320,000 compounds were called active. Inconclusive results, whose numbers are uncertain, are shown with a selection of clear calls. Calls follow the shape of the dose curve; as a rule, active = well fitted inhibition curve with a large enough effect; inconclusive = small, poorly fitted or top-dose-only effect, or another doubt; inactive = no such curve, though single readings can be large or run the other way. Where the call is inconclusive, the potency comes from a doubtful curve fit.

assay: Primary qHTS for delayed death inhibitors of the malarial parasite plastid, 96 hour incubation; conditions: P. falciparum luciferase reporter growth; series mostly up to 28.7 µM
Procedure, shortened: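 Two parasite generations (96 h, 37 C, 5% CO2) of compound exposure in infected erythrocytes (0.05% parasitemia, 2% hematocrit). Luciferase-reporter P. falciparum; decreased luminescence indicates inhibited growth, aimed at apicoplast-acting delayed death.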
% is scaled to controls: 0 for no effect and ±100 for the full control effect; potency is read from the fitted curve at half-maximal effect.

| Structure (SMILES) | Potency | activity change, negative = inhibition |
| --- | --- | --- |
| Cc1ccc(-n2nc3c(=O)n(CCCC(=O)NC4CCC(C)CC4)nc(C)c3c2C)cc1 (stereo not given) | inactive | – |
| COc1cccc(CN2CC(C(=O)NCCc3ccc(C)s3)CCC2=O)c1 (stereo not given) | inactive | – |
| COc1ccc(OC)c(C2C(C#N)=C(N)N(N(C)C)C3=C2C(=O)CCC3)c1 (stereo not given) | inactive | – |
| CCN(CC(=O)Nc1c(F)cccc1F)C(=O)c1cc(-c2cccs2)nn1-c1ccccc1 | inactive | – |
| CC(C)N1C(=O)CCC1C(=O)NCc1cccs1 (stereo not given) | inactive | – |
| Cc1noc(C)c1C(=O)OCC(=O)c1c[nH]c2ccccc12 | inconclusive: 18.5 µM [inhibitor, single point] | – |
| COc1ccc(CC(=O)NCc2nnc(SCc3ccc([N+](=O)[O-])cc3)n2C)cc1 | inconclusive: 13.1 µM [inhibitor, partial curve, poor fit] | – |
| CC[n+]1c(/C=C(/C)SC)sc2ccccc21 | inconclusive: 7.38 µM [inhibitor, partial curve] | – |
| CSCC[C@H](NC(=O)[C@H](Cc1ccccc1)n1c(=O)[nH]c2ccccc2c1=O)C(=O)N[C@@H](Cc1ccccc1)C(=O)O | inconclusive: 18.5 µM [inhibitor, single point] | – |
| COc1ccc(N2CCN(C(=O)COc3cccc4ccccc34)CC2)cc1 | inconclusive: 13.1 µM [inhibitor, single point] | – |
| O=C(CN1CCN(c2ccc(O)cc2)CC1)N(C1CC1)C1CCS(=O)(=O)C1 (stereo not given) | inconclusive: 13.1 µM [inhibitor, single point] | – |
| O=C(C[n+]1cc(-c2ccccc2)n2c1CCC2)Nc1nc(-c2ccccc2)cs1 | inconclusive: 7.38 µM [inhibitor, partial curve] | – |
| CN(CCOc1ccccc1)C(=O)C1CCC(=O)N(CCCN2CCOCC2)C1 (stereo not given) | inconclusive: 18.5 µM [inhibitor, single point] | – |
| CCCS(=O)(=O)c1c(S(=O)(=O)CCC)c2c(C)cccn2c1C(=O)OC | inactive | – |
| Cc1nn(-c2ccccc2)c(Cl)c1C(=O)NCc1ccccc1F | inconclusive: 0.329 µM [inhibitor, full curve, poor fit] | – |
| CCOC(=O)c1ccc(CC(=O)c2oc3cc(O)ccc3c2C)o1 | inconclusive: 10.4 µM [inhibitor, partial curve, poor fit] | – |
| Cn1c(SCC(=O)NCCc2ccccc2)nnc1C1CCCCC1 | inactive | – |
| O=C(Nc1ccccc1-c1nnc(SCc2ccc(Cl)cc2Cl)o1)c1ccccc1 | active: 2.33 µM | – |
| CCOC(=O)C1CCN(C(=O)COC(=O)c2ccc(Br)o2)CC1 | – | inactive: -5.87% [at 5.75 µM] |
| CCN(CC(=O)Nc1cc(C)nn1-c1nc(C)cc(C)n1)Cc1ccccc1 | active: 4.15 µM | – |
| CCOC(=O)C1=C(C)NC2=C(C(=O)CC(c3ccc(OC)c(OC)c3)C2)C1c1ccc(C)o1 (stereo not given) | inconclusive: 0.0738 µM [inhibitor, full curve, poor fit] | – |
| COc1ccccc1NC(=S)NC(=O)/C=C/c1ccco1 | inactive | – |
| Cc1ccc(C(=O)c2c(NC(=O)c3ccccc3C)sc(C)c2C)cc1 | inconclusive: 18.5 µM [inhibitor, single point] | – |
| COc1ccc(N2C(=O)CSC2c2ccc(F)c(F)c2)cc1 (stereo not given) | inconclusive: 18.5 µM [inhibitor, single point] | – |

A draw from above in order of length of the SMILES, ascending:

| Structure (SMILES) | Potency | activity change, negative = inhibition |
| --- | --- | --- |
| CC[n+]1c(/C=C(/C)SC)sc2ccccc21 | inconclusive: 7.38 µM [inhibitor, partial curve] | – |
| COc1ccccc1NC(=S)NC(=O)/C=C/c1ccco1 | inactive | – |
| Cn1c(SCC(=O)NCCc2ccccc2)nnc1C1CCCCC1 | inactive | – |
| COc1ccc(N2C(=O)CSC2c2ccc(F)c(F)c2)cc1 (stereo not given) | inconclusive: 18.5 µM [inhibitor, single point] | – |
| Cc1noc(C)c1C(=O)OCC(=O)c1c[nH]c2ccccc12 | inconclusive: 18.5 µM [inhibitor, single point] | – |
| CCOC(=O)c1ccc(CC(=O)c2oc3cc(O)ccc3c2C)o1 | inconclusive: 10.4 µM [inhibitor, partial curve, poor fit] | – |
| CCOC(=O)C1CCN(C(=O)COC(=O)c2ccc(Br)o2)CC1 | – | inactive: -5.87% [at 5.75 µM] |
| COc1ccc(N2CCN(C(=O)COc3cccc4ccccc34)CC2)cc1 | inconclusive: 13.1 µM [inhibitor, single point] | – |
| Cc1ccc(C(=O)c2c(NC(=O)c3ccccc3C)sc(C)c2C)cc1 | inconclusive: 18.5 µM [inhibitor, single point] | – |
| CN(CCOc1ccccc1)C(=O)C1CCC(=O)N(CCCN2CCOCC2)C1 (stereo not given) | inconclusive: 18.5 µM [inhibitor, single point] | – |
| CCN(CC(=O)Nc1cc(C)nn1-c1nc(C)cc(C)n1)Cc1ccccc1 | active: 4.15 µM | – |
| O=C(Nc1ccccc1-c1nnc(SCc2ccc(Cl)cc2Cl)o1)c1ccccc1 | active: 2.33 µM | – |
| CCCS(=O)(=O)c1c(S(=O)(=O)CCC)c2c(C)cccn2c1C(=O)OC | inactive | – |
| O=C(CN1CCN(c2ccc(O)cc2)CC1)N(C1CC1)C1CCS(=O)(=O)C1 (stereo not given) | inconclusive: 13.1 µM [inhibitor, single point] | – |
| O=C(C[n+]1cc(-c2ccccc2)n2c1CCC2)Nc1nc(-c2ccccc2)cs1 | inconclusive: 7.38 µM [inhibitor, partial curve] | – |
| COc1ccc(CC(=O)NCc2nnc(SCc3ccc([N+](=O)[O-])cc3)n2C)cc1 | inconclusive: 13.1 µM [inhibitor, partial curve, poor fit] | – |
| Cc1ccc(-n2nc3c(=O)n(CCCC(=O)NC4CCC(C)CC4)nc(C)c3c2C)cc1 (stereo not given) | inactive | – |
| CCOC(=O)C1=C(C)NC2=C(C(=O)CC(c3ccc(OC)c(OC)c3)C2)C1c1ccc(C)o1 (stereo not given) | inconclusive: 0.0738 µM [inhibitor, full curve, poor fit] | – |
| CSCC[C@H](NC(=O)[C@H](Cc1ccccc1)n1c(=O)[nH]c2ccccc2c1=O)C(=O)N[C@@H](Cc1ccccc1)C(=O)O | inconclusive: 18.5 µM [inhibitor, single point] | – |

Next results

| Structure (SMILES) | Potency | activity change, negative = inhibition |
| --- | --- | --- |
| COc1ccc(OCCNC(=O)c2cc(C3CC3)nc3c2cnn3C(C)C)cc1 | inconclusive: 18.5 µM [inhibitor, single point] | – |
| COc1ccc(NC(=O)CSc2nc3ccccc3c(=O)n2-c2ccc3c(c2)OCO3)c(OC)c1 | inconclusive: 10.4 µM [inhibitor, single point] | – |
| CN(Cc1ccccc1)C(=O)c1nc2ccccn2c1CN1CCCC1c1nccs1 (stereo not given) | inconclusive: 10.4 µM [inhibitor, single point] | – |
| COc1cc(OC)c(-n2c(C)cc(C=O)c2C)cc1Cl | active: 13.1 µM | – |
| O=C(NCC1COc2ccccc2O1)c1cccc(S(=O)(=O)N2CCOCC2)c1 (stereo not given) | inconclusive: 10.4 µM [inhibitor, single point] | – |
| O=c1c(Cc2ccc(Cl)cc2Cl)c(O)ccn1CC(F)(F)F | inconclusive: 6.57 µM [inhibitor, partial curve, poor fit] | – |
| Cc1cccc(NC(=S)NCC(C)CSc2ccc(Cl)cc2)c1 (stereo not given) | inconclusive: 18.5 µM [inhibitor, single point] | – |
| CN(C)S(=O)(=O)c1cc(NC(=O)COC(=O)c2ccc3c(c2)OCO3)ccc1Cl | inconclusive: 18.5 µM [inhibitor, single point] | – |
| COc1ccc(Cl)cc1N(CC(=O)NC1CC1)S(=O)(=O)c1ccc(C)c([N+](=O)[O-])c1 | inconclusive: 11.7 µM [inhibitor, single point] | – |
| COc1ccc(N2CCN(C(c3cccs3)C(C)NC(=O)C(=O)N3CCCCC3)CC2)cc1 (stereo not given) | active: 11.7 µM | – |
| CCOC(=O)/C(C#N)=C/c1c(N2CCCCCC2)nc2ccccn2c1=O | inconclusive: 10.4 µM [inhibitor, single point] | – |
| Cc1nc(CS(=O)c2ccc(Cl)cc2)cc(N2CCOCC2)n1 (stereo not given) | inactive | – |
| CN(CC(=O)Nc1cccc(F)c1)CC(=O)Nc1cc(S(=O)(=O)N2CCOCC2)ccc1Cl | inactive | – |
| c1ccc2c(-c3nc(C4CCCCC4)no3)cc(-c3ccncc3)nc2c1 | inconclusive: 18.5 µM [inhibitor, single point] | – |
| CCN1CCN(C(=O)CS(=O)Cc2nc(-c3cccc(C)c3)oc2C)CC1 (stereo not given) | inactive | – |
| Cc1nc(S(=O)(=O)c2ccc(Cl)cc2Cl)nc2c1CCC2 | inactive | – |
| O=C(NCc1ccncc1)C(=O)NCC(c1ccco1)N1CCN(c2ccc(F)cc2)CC1 (stereo not given) | inconclusive: 18.5 µM [inhibitor, single point] | – |
| COc1ccc(CN(C)CC(O)COC(c2ccc(OC)cc2)c2ccc(OC)cc2)cc1 (stereo not given) | inconclusive: 18.5 µM [inhibitor, single point] | – |
| O=C(N/N=C/C1CCCCC1)c1ccccn1 | inactive | – |
| Cc1ccc(S(=O)(=O)Nc2ccccc2C(=O)Nc2nc(-c3ccc(F)cc3)cs2)cc1 | inconclusive: 0.0586 µM [inhibitor, full curve, poor fit] | – |
| O=C(NCc1n[nH]c(=S)n1-c1cccc(Cl)c1)c1cccs1 | inconclusive: 18.5 µM [inhibitor, single point] | – |
| CCOc1ccccc1/C=N/Nc1nc2ccccc2o1 | inconclusive: 18.5 µM [inhibitor, single point] | – |
| CCc1ccc(-c2csc3nc[nH]c(=O)c23)cc1 | inconclusive: 14.7 µM [inhibitor, partial curve, poor fit] | – |
| O=C(CCl)Nc1cccc(Oc2cnccn2)c1 | active: 3.7 µM | – |

| Structure (SMILES) | Potency | activity change, negative = inhibition |
| --- | --- | --- |
| Cc1ccc(NC2(C#N)C(=O)Nc3ccccc32)cc1C (stereo not given) | inconclusive: 8.28 µM [inhibitor, partial curve, poor fit] | – |
| COc1ccc(NC(=O)Nc2ccc3nccnc3c2)cc1 | inconclusive: 18.5 µM [inhibitor, partial curve, poor fit] | – |
| O=C(Nc1cccc(S(=O)(=O)N2CCCCC2)c1)c1ccc2c(=O)n3c(nc2c1)CCCCC3 | active: 13.1 µM | – |
| CC(C)(C)OC(=O)N1CCC(NC(=O)c2[nH]cnc2C(=O)Nc2ccon2)CC1 | inconclusive: 8.28 µM [inhibitor, partial curve, poor fit] | – |
| COc1ccc(OCc2nc(C#N)c(N3CCN(c4ccc(OC)cc4)CC3)o2)cc1 | inactive | – |
| C[n+]1c2n(c3ccccc31)N=C(c1ccc(Cl)cc1)CS2 | inactive | – |
| CC(=O)c1ccc(OCC(O)CN2CCc3ccccc3C2)cc1 (stereo not given) | inconclusive: 18.5 µM [inhibitor, single point] | – |
| Nc1ccccc1SC1CC(=O)N(c2ccc3c(c2)OCCO3)C1=O (stereo not given) | inactive | – |
| Cc1ccc(SCC(=O)OCC(=O)N(CC(C)C)c2c(N)n(Cc3ccccc3)c(=O)[nH]c2=O)c(C)c1 | inactive | – |
| CSc1ccc(Cn2nnc(C(=O)Nc3ccc(C)c(C)c3)c2N)cc1 | inconclusive: 1.65 µM [inhibitor, partial curve, poor fit] | – |
| O=C(c1ccccc1Cc1ccccc1)N1CCN(S(=O)(=O)c2ccc(F)cc2)CC1 | inconclusive: 13.1 µM [inhibitor, single point] | – |
| O=C(Nc1ccccc1N1CCN(C(=O)c2ccccc2)CC1)c1cccc(Cl)c1 | inconclusive: 11.7 µM [inhibitor, partial curve] | – |
| CC1(C)O[C@H]2C[C@@H]3[C@H]4CCC5=CC(=O)C=C[C@]5(C)[C@@]4(F)[C@@H](O)C[C@]3(C)[C@]2(C(=O)CO)O1 | active: 9.53 µM | – |
| CCOc1ccc(Br)cc1S(=O)(=O)NCc1ccncc1 | active: 13.1 µM | – |
| CCn1cc(C(=O)NCc2ccc3c(c2)OCO3)c(=O)c2cc(F)c(N3CCN(C)CC3)cc21 | inactive | – |
| COc1ccc(C(=O)NC(=S)Nc2ccccc2N2CCOCC2)cc1Br | inactive | – |
| COc1cc(C=O)cc(OC)c1OS(=O)(=O)c1ccc(NC(C)=O)cc1 | active: 4.15 µM | – |
| COc1ccc(NC(=O)c2ccc3c(c2)NC(=O)CO3)cc1OC | inconclusive: 13.1 µM [inhibitor, single point] | – |
| Cc1nn(Cc2ccc(Cl)cc2Cl)c(C)c1NC(=O)CCl | active: 10.4 µM | – |
| Cc1ccc(S(=O)(=O)N2CC(O)C2)cc1 | inactive | – |
| COC1=CC2C3Cc4ccc(OC)c(O)c4C2(CCN3C)CC1=O (stereo not given) | inconclusive: 13.1 µM [inhibitor, partial curve, poor fit] | – |
| CCn1c(NC(=O)c2ccccc2F)c(-c2cccs2)c(=O)c2ccccc21 | inconclusive: 18.5 µM [inhibitor, partial curve, poor fit] | – |
